Assay: peptide made by a vendor
Settings: whole synthesis

11-GKSARDVFTKGYGFGL-26- RRMKWKK
purity (crude or final not stated): 95.24%

Source: PMC9599717 (Biomolecules, 2022)
